The results in this text go back to PubChem BioAssay AID1347423 (Functional Genomics Laboratory (NCATS/FGL), 2020).

In all, about 52,000 sequences went through this assay and about 210 (0.4%) were called active.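 The calls were made as follows: active = gene whose silencing raises cell survival under the drug, median off-target-corrected z-score across its silencing RNAs 2 or more; inactive = the rest.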 The list shows a part of the results.

This assay can be described thus: Resistance to Poly (ADP-Ribose) Polymerase inhibitor: Gene Identification via Genome-wide siRNA Screen. To be noted: mouse BRCA2 R2336H ES cells, olaparib, CellTiter-Glo viability; hits give high values. The gist of the method: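 Mouse BRCA2 R2336H ES cells were reverse-transfected with siRNA (20 nM final), treated at 48 h with 500 nM olaparib, and read by CellTiter-Glo after 72 h. Scores: MAD-based z per siRNA, median per gene, seed off-target correction.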
Regarding CCAUGAGACAAGAUUUAGATT against Olfr818, the z-score is inactive: -0.162.

With CGGACUUUUUUGGAUUUUCTT against Zfp238, the z-score is inactive: 0.901. With GGCCACGUUACACGUACUUTT against Wnt3a the figure was inactive: 0.373; with GGCUACAAGUGGGAAUUCATT against Cklfsf2b, inactive: -1.06.

For CCCUGAAACAAUGAAUACATT against Serpini1, the z-score was inactive: -0.751. As for GCUGGUGGCACUGAAGCUATT against Nme3, the figure is inactive: -2.95; as for CCUGCUUACCAAAGAAUCCTT against Tieg3, inactive: 0.553; as for GCACAUUUGGACAACCAAUTT against LOC245128, inactive: -0.966. As for GGCCAGAACUUAAAUUUUCTT against Nbr1, the figure is inactive: -0.105; as for “UGCCCUUCCUAUUUUAUAATT against 2410015A16Rik”, inactive: 0.138; as for GCUAAUGCUUGUUGAACACTT against Hpcal4, inactive: -1.18.

For GGCACAACUGAUUUUGAAATT against Ifngr2, the z-score was inactive: 1.06. With CCGUGUUCUCUAUCCAGCATT against Slc7a9 the figure was inactive: -0.514; with GCUACUCCAUUUACAUCUATT against Hist1h2ba, inactive: 0.249; with “GGAAAGAUUUUCAUUUGAGTT against B930008K04Rik”, inactive: 0.305. In the case of GGAUGGUGCAUACCUCUUCTT against Axin2, the z-score is inactive: -0.734.

As for “GGCAACUUCACAACAUGCCTT against A930017K11Rik”, the z-score is inactive: 3.19. As for “GGGAAACAAACAGAAGAACTT against B230363K08Rik”, the figure is inactive: 1.28. With GGAAAAAAACUUGCUGGAUTT against Ppp3ca the figure was inactive: 2.12. For the sequence CCUGUAGCUAGCUUCUAGGTT against Adamts10, the z-score is inactive: 0.402. Take GGAUAUUGCCAGUAAUUAATT against Kif21a: the z-score was inactive: -0.391. Regarding GGUUCAUGAAUGACAAACUTT against Sult4a1, the z-score was inactive: 0.762. Regarding GGUGCUGGAGAACAUUCUATT against Angpt2, the z-score was inactive: -1.91.

In the case of GGCGAAAAAGAACUUCUCCTT against Prrx1, the z-score was inactive: -1.45. With GCUAUUCAAUCUGAGGAAATT against Olfr1278 the figure was inactive: -0.604. With GGAAAGAAAUGCUGAAAAUTT against Atp2a2 the figure was inactive: -1.74. With CCUAGUGUUAGAACAGAUCTT against Zmynd10 the figure was inactive: 0.961; with GGAAACACACUGGUUCUGATT against Il6ra, inactive: -0.628; with GGGCUACACAAAAUUUUAATT against Cxcl11, inactive: 0.842.

As for GCAUCGAUCUUUAUACACUTT against Arhgef12, the z-score was inactive: 0.838.

Regarding GGACUGUCUGAUGUCAAAGTT against Synpr, the z-score was inactive: 1.02. Consider “CCUUAAACUUGGCCGAGGUTT against 0610038D11Rik”, for which the z-score was inactive: -1.02. Consider GGAACUUGGGCAUUCCAGATT against Adck2, for which the z-score was inactive: 0.757.

Turning to GGAGUCGUUUAAGCUUUAATT against Atbf1, the z-score was inactive: 0.404. Take GGGCAUUUUUACAGUUUUCTT against Chfr: the z-score was inactive: -0.137. With CCACCAUUCGGCUCUUUUGTT against Nupl2 the figure was inactive: 1.55; with “GGGUCAUGUAACUAGUAUATT against 1810034M08Rik”, inactive: 0.158; with CGGUUACUUCAGAAAUCUATT against Tlr5, inactive: 0.417.

With GGAUCCUGAACAUAUGAAUTT against D4st1, the z-score was inactive: 0.814. As for GUGCUAUACUCGGUCGUCATT against MOR253-5, the figure is inactive: -1.56; as for GGACGAUUUAAGGAUUUUUTT against Tes3, inactive: 1.14. GCCCUUGUGAUUCGAAAUGTT against Atp1a1: the z-score is inactive: -0.422. Turning to GGGAAAGUCAGUUUAAAGATT against Baz1b, the z-score was inactive: 0.306. For GGACAAUUGGGCCAAACUGTT against Mpv17, the z-score is inactive: 0.561. As to GCAGUGUCUAGGACAGUCATT against Pdcd5, the z-score was inactive: -0.0804. As for GGGUGAUGCCCUUGAAUCUTT against Ptk9l, the figure is inactive: 2.23. For “GGAUUCACGAGCAUAAGCUTT against 1700020D05Rik”, the z-score was inactive: 0.831. With GCCAGUAAUCCAUACCGUGTT against C6 the figure was inactive: 0.175; with GGAGAAGCAGCAACAGCUATT against Asgr2, inactive: -0.189; with GGCUGUGAAGCUUACCAGCTT against Tm9sf4, inactive: 0.639. As for “GGACCAUACAAUGAUUCUATT against B930008K04Rik”, the figure is inactive: 0.27. Turning to GGUCAUAGAUAACACGCUCTT against Cpne5, the z-score is inactive: 2.22.

For the sequence GGAGGAAGCUGUCAAGGAUTT against AU040576, the z-score was inactive: -1.64. With CGAGGUCAUCAUCAUCGAATT against Ccbl1 the figure was inactive: 0.509; with GCCUUCCAGUCAGUGAAAUTT against Foxn1, inactive: 0.346. For the sequence GCGCAACAGGAUUCAGCUATT against Csmd1, the z-score was inactive: 1.27. As for GUCUUCAUACUCCAAUGUATT against Olfr878, the z-score was inactive: -0.919. Consider GGCUUUUGAUGAGGUAAAATT against AI840980, for which the z-score is inactive: 1.63. Turning to GGGAGCAUCAGUUAAUUUUTT against Yes, the z-score is inactive: -0.0597. Turning to GGACCUGUAUUCUCAGGGATT against Sprrl2, the z-score is inactive: -0.501.

With GGAAAAGGAAAGGACUAAGTT against Mdk, the z-score was inactive: 0.665. As for GCAUGUAGUAUGGUAACACTT against Akr1b7, the figure is inactive: -0.975; as for GGAUCUGAAAGAUCAGAUUTT against Lmnb1, inactive: 0.337; as for UAUUGUUCACUGCACUGUATT against Leftb, inactive: 0.106.

For GGAAGAAGAAGGAAGAUGATT against Cfdp1, the z-score is inactive: -2.45. With “GGAUACCUAUCUGCACUUCTT against 1700049K14Rik” the figure was inactive: 0.472. As for UUGGUUCAACCUCAUCAUATT against Olfr869, the figure is inactive: 0.227; as for GGGAUUUGUUACCCUCCUCTT against Eppb9, inactive: -1.99. With CGAUCUAGUCAACAUCAAATT against Fcer2a the figure was inactive: 0.729; with GGAACUACAGAAUUUAUUGTT against Rfxdc1, inactive: 2.05. As to GGACUUCCAUAAGAUGAAATT against Nrap, the z-score was inactive: -0.474. As for GGGAUAAGACAGGAGACUUTT against Slc16a11, the figure is inactive: -1.14.

Turning to CCCUUAAGUCUUUUUCCUATT against Cugbp2, the z-score was inactive: 0.709. As to GGCUUCCAAGCCUAAAGCUTT against Hist1h1d, the z-score was inactive: -1.06. As to AUAAAAGUGACUCACCAACTT against A4galt, the z-score is inactive: 1.74.

For the sequence GGACUGAUUCGUCUAAUACTT against Ckap2, the z-score was inactive: -1.52. With GCCAGGUUUACCUAAGAGGTT against Rhog the figure was inactive: -0.0106; with GGCGACUUAUUAAAAUCCUTT against Fads3, inactive: 0.648. With GGACUUGCGCGACAAGAUUTT against Krt1-19 the figure was inactive: -0.646. Regarding GGUACAGGUUGGCAUUGAUTT against Aasdhppt, the z-score was inactive: 2.06.

“GGAGAAAGAAUCUGAAAAUTT against 4922504H04Rik”: the z-score is inactive: -3.21.

On to GGACAAACUCUUGCUCUCCTT against Chpt1, for which the z-score is inactive: -0.688. With GGAGAGUACUGCCAGACUCTT against Ring1 the figure was inactive: 0.394; with GGAUAUCUCACUGCUUUUATT against Mpp5, inactive: 0.482; with “GGUUGAAGAGCAUGAGAGCTT against A330041J22Rik”, inactive: 0.0833. Regarding GGCCGAACCAUCUCAUACCTT against Olfr976, the z-score is inactive: 1.19.

Regarding “GGCUCCUAACUCACUGGGATT against C730042F17Rik”, the z-score was inactive: -0.787.

In the case of “GGAGGUUAAGAGAUCUCCATT against 2410042D21Rik”, the z-score was inactive: 0.663.

Take GCUAUUGGGACUUAGAACATT against Slc26a9: the z-score was inactive: -0.56. As for CGAAGACCCUCAUAUAGAATT against Crem, the figure is inactive: -0.238. As to GGAUGGAAAAUAAAACAGGTT against Hoxb7, the z-score was inactive: -0.802. Regarding GCCUAUACUAUAGAAUUACTT against Rutbc1, the z-score is inactive: 1.92. With “GGAGGAUCUUGAGUUGGAGTT against 4930579G22Rik” the figure was inactive: -1.52; with CUUACAGUUGCGUCCACUGTT against Ypel4, inactive: -1.37; with CCUACAACAGAUGUGCAGCTT against BC017647, inactive: -0.88. As for GGUGAACGAUGUCAAUAAGTT against Pdxk, the figure is inactive: -0.0358. With GGAGUCCUAUGUGCUGAAATT against Treml4 the figure was inactive: 0.638; with GUUCCCAAAGUCUCAUGUUTT against Mef2b, inactive: -0.679. As for GCAUCCCAGAUAUUGAGCATT against Arrdc1, the z-score is inactive: 0.319. Turning to GGUGUUGUGCACAUAUAUGTT against Tom1l2, the z-score is inactive: -0.359. As for CCACCUGUCGAGAUGUCGUTT against Ppp1r13b, the figure is inactive: 0.0805. As for CCAACACCUAAUAUUACUCTT against Lrig2, the figure is inactive: 1.05; as for GGUAGAGCCUGACAUCAACTT against Ppp2r3a, inactive: 0.506; as for GGUCGAUAUAAUCCUAGAGTT against Chrna5, inactive: -0.793.
